This passage reports binding results from article PMC6972935.

The chains behind the UniProt entries cited, without tags or fusion partners.
UniProt P07149: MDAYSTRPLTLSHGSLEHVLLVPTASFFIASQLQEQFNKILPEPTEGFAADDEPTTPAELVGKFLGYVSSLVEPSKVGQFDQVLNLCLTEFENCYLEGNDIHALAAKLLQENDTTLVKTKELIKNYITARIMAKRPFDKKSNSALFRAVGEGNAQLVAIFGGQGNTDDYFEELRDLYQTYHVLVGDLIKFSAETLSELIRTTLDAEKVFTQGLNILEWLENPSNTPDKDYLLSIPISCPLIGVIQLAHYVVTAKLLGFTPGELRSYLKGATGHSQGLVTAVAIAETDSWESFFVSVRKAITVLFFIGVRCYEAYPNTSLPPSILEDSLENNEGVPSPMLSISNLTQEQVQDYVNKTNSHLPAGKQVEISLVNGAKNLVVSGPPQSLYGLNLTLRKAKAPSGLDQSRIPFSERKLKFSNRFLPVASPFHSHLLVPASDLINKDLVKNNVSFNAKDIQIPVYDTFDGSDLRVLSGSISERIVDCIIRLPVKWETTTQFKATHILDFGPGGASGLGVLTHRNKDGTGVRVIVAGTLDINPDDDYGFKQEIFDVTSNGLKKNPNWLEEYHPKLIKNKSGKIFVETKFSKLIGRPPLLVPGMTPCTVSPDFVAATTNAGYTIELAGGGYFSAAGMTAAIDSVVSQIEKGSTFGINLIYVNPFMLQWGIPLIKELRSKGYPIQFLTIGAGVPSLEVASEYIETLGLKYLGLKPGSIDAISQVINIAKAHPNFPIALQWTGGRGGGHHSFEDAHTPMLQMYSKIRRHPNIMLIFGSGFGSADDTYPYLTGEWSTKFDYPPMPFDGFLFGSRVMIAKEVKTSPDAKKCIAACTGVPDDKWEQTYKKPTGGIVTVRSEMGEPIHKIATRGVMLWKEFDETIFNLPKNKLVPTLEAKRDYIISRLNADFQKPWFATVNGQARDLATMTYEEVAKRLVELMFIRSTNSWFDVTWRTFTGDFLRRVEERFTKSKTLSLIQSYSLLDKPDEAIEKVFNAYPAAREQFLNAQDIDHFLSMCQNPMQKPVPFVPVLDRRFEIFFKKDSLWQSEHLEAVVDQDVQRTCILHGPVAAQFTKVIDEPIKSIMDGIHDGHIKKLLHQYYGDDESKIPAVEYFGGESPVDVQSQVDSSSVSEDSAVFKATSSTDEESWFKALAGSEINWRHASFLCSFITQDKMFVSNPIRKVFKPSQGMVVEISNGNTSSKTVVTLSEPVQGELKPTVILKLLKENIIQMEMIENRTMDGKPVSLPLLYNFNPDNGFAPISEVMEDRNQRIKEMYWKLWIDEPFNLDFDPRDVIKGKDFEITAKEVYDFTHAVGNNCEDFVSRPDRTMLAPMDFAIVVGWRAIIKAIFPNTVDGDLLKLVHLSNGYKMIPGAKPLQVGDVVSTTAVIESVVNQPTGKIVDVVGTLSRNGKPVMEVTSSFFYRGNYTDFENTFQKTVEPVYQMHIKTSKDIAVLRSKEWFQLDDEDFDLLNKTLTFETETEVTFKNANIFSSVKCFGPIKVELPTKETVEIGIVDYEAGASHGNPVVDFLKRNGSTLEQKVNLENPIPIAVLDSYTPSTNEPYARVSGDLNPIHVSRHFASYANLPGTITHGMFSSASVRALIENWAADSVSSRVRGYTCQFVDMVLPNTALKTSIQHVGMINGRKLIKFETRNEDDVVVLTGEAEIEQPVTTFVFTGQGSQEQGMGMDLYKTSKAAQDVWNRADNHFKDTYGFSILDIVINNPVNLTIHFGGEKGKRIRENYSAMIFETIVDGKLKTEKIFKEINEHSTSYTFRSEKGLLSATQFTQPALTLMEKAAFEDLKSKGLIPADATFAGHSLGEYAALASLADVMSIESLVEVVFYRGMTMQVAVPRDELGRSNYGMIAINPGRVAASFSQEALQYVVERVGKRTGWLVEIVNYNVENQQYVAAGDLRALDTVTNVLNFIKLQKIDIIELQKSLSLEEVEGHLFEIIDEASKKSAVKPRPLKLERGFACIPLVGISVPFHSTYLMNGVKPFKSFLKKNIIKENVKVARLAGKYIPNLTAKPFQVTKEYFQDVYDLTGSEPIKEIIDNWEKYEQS

Where two headings read alike, the source gives them in different places. No constants are given. Whether binding was seen depends on the method and setting. Some entries that bind do so weakly or less than the wild type.

Assay [1] addresses yeast fatty acid synthase (FAS) β-subunit, wildtype (encoded by FAS1) (S. cerevisiae) (UniProt P07149). The assay can be described thus: native gel or EMSA; Native-PAGE (3–12% Bis-Tris, Blue Native buffer system) of lysates of S. cerevisiae strains (for the deletion mutants also after purification), Western blot with rabbit anti-FAS antiserum; bands indicate intact FAS barrels. (In general: Mobility shift assays separate free from complexed probe on a gel.)

Assay [2] has the same target. Described as above. The source holds these as a separate data set.

Turning to “yeast FAS α-subunit K2S/E8R double mutant (from UniProt P19097 1-1887)”, the binding entry in assay [1] is “no binding”.
Same read-out and setting: in the case of “yeast FAS α-subunit S180A (phosphopantetheinylation-deficient) (from UniProt P19097 1-1887)” it was “binds”.
On the same count and under the same terms, in the case of “yeast FAS α-subunit deleted in about half of the N-terminal α1-helix (amino acids K2 to H11) (from UniProt P19097 1-1887)” it was “no binding”; in that of “yeast fatty acid synthase (FAS) α-subunit, wildtype (encoded by FAS2) (from UniProt P19097 1-1887)”, “binds”.

B1: yeast FAS α-subunit N-terminal piece of the tripartite FAS, fas2∆(428–1887) (domain or fragment, UniProt P19097 1-427)
chain: MKPEVEQELAHILLTELLAYQFASPVRWIETQDVFLKDFNTERVVEIGPSPTLAGMAQRTLKNKYESYDAALSLHREILCYSKDAKEIYYTPDPSELAAKEEPAKEEAPAPTPAASAPAPAAAAPAPVAAAAPAAAAAEIADEPVKASLLLHVLVAHKLKKSLDSIPMSKTIKDLVGGKSTVQNEILGDLGKEFGTTPEKPEETPLEELAETFQDTFSGALGKQSSSLLSRLISSKMPGGFTITVARKYLQTRWGLPSGRQDGVLLVALSNEPAARLGSEADAKAFLDSMAQKYASIVGVDLSSAASASGAAGAGAAAGAAMIDAGALEEITKDHKVLARQQLQVLARYLKMDLDNGERKFLKEKDTVAELQAQLDYLNAELGEFFVNGVATSFSRKKARTFDSSWNWAKQSLLSLYFEIIHGVLKN
As to B1, the binding entry in assay [2] is recorded as “binds”.
